In article PMC11245307, “Evolutionary adaptation of an HP1-protein chromodomain integrates chromatin and DNA sequence signals” (eLife, 2024):
Where a chain is given by its changes, count along the chain named. Names may count otherwise. Results are given in words; binding and its absence hold for the method and conditions named. One block for each binder: values may come before it.

How the values were obtained:
[1] = biological target: T1, Rhino chromodomain F48A (Rhino residues 20-90) (D. melanogaster) (UniProt Q7JXA8); experiment: condition: peptide at approximately 1 mM, protein at 100 µM; ITC; chromodomain at 100 µM, H3K9me3 peptide at approximately 1 mM; 20 mM Tris, pH 8.0, 25 mM NaCl, 2 mM β-mercaptoethanol; 20°C; MicroCal iTC200, sixteen 2.5 µl injections; both purified
T1 sequence: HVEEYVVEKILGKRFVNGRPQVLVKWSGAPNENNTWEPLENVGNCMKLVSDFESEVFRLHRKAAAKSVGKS

[2] = biological target: Rhino chromodomain, wildtype construct (Rhino residues 20-90) (D. melanogaster) (UniProt Q7JXA8); experiment: SEC-MALS; about 400 μg purified protein (100 μl at 4 mg/ml) on Superdex75increase 10/300 GL; 20 mM Tris, pH 7.5, 150 mM NaCl; Wyatt Dawn Heleos-II; both purified
[3] = biological target: Rhino chromodomain F34A/F76A double mutant (Rhino residues 20-90) (D. melanogaster) (UniProt Q7JXA8); experiment: as above
[4] = biological target: Rhino chromodomain Y24A (Rhino residues 20-90) (D. melanogaster) (UniProt Q7JXA8); experiment: as above
[5] = biological target: Rhino chromodomain G31A (Rhino residues 20-90) (D. melanogaster) (UniProt Q7JXA8); experiment: as above
[6] = biological target: Rhino chromodomain W45A (Rhino residues 20-90) (D. melanogaster) (UniProt Q7JXA8); experiment: as above
[7] = biological target: T1, Rhino chromodomain F48A (Rhino residues 20-90) (D. melanogaster); experiment: as above
[8] = biological target: Rhino chromodomain G31D (Rhino residues 20-90) (D. melanogaster) (UniProt Q7JXA8); experiment: as above

B3: Rhino chromodomain F34A/F76A double mutant (Rhino residues 20-90) (domain or fragment, UniProt Q7JXA8 20-90)
chain: T1 sequence with F15A, A29F, F57A
binding [3]: no binding (tested: 100 μl at 4 mg/ml)

B5: Rhino chromodomain G31A (Rhino residues 20-90) (domain or fragment, UniProt Q7JXA8 20-90)
chain: T1 sequence with G12A, A29F
binding [5]: no binding (tested: 100 μl at 4 mg/ml)

B6: Rhino chromodomain W45A (Rhino residues 20-90) (domain or fragment, UniProt Q7JXA8 20-90)
chain: T1 sequence with W26A, A29F
binding [6]: no binding (tested: 100 μl at 4 mg/ml)

B7: Rhino chromodomain F48A (Rhino residues 20-90) (domain or fragment, UniProt Q7JXA8 20-90)
chain: T1 sequence
binding [7]: no binding (tested: 100 μl at 4 mg/ml)

B8: Rhino chromodomain G31D (Rhino residues 20-90) (domain or fragment, UniProt Q7JXA8 20-90)
chain: T1 sequence with G12D, A29F
binding [8]: no binding (tested: 100 μl at 4 mg/ml)

Second part, the binder after the results:

binding [1]: no binding
B1: H3K9me3 peptide (KQTAR-K[me3]-STGGK) (peptide)
peptide: KQTARKSTGGK
modifications: trimethyl-lysine K[me3] at the sixth residue of the peptide (H3K9me3)

binding [2]: no binding (tested: 100 μl at 4 mg/ml)
B2: Rhino chromodomain, wildtype construct (Rhino residues 20-90) (domain or fragment, UniProt Q7JXA8 20-90)
chain: T1 sequence with A29F

binding [4]: no binding (tested: 100 μl at 4 mg/ml)
B4: Rhino chromodomain Y24A (Rhino residues 20-90) (domain or fragment, UniProt Q7JXA8 20-90)
chain: T1 sequence with Y5A, A29F
